{"sequences": {"note": "Protein sequences, listed by entry. Tags and fused reporters are not part of them. Residues count along the entry.", "UniProt P19338, 2-710": "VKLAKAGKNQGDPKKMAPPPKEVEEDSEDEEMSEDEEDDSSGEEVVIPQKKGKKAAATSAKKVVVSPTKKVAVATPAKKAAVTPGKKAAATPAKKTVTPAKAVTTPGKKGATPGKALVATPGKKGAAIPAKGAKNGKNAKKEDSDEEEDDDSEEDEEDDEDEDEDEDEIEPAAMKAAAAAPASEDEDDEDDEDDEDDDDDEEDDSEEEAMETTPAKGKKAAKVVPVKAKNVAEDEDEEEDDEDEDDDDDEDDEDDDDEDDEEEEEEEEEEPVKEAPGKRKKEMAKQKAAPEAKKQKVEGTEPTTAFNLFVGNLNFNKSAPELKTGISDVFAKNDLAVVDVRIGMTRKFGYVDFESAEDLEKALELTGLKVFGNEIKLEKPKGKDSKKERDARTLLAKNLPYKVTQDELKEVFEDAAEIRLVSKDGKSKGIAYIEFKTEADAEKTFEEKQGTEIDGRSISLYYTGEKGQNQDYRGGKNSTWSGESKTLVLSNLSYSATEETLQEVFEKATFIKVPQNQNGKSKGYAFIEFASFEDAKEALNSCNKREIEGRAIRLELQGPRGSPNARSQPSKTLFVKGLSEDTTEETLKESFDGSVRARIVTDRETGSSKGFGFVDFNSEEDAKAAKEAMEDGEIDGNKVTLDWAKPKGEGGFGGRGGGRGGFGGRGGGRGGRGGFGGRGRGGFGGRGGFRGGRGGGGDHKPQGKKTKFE"}, "source": "patent US20090326047", "key": {"[1]": {"target": "nucleolin (approximately 116 kDa form + GRO-binding protein) (Homo sapiens) (UniProt P19338)", "assay": "competition with a labelled probe", "details": "protein in an extract"}, "[2]": {"target": "nucleolin (116 kDa) (Homo sapiens) (UniProt P19338)", "assay": "pull-down", "details": "cells treated with 5 uM biotinylated oligo 2 h, streptavidin capture, nucleolin antibody Western; protein in cells; protein details: endogenous, MDA-MB-231 cells; label: 5'-biotin; single-stranded DNA; variant of GRO15A"}, "[3]": {"target": "nucleolin (106 kDa G-rich oligonucleotide binding protein, p106) (Homo sapiens) (UniProt P19338)", "assay": "EMSA", "details": "protein in an extract, protein details: HeLa nuclear extract, Promega bandshift grade, label: 5'-32P (when used as probe)"}, "[4]": {"target": "nucleolin (approximately 116 kDa form + GRO-binding protein) (Homo sapiens) (UniProt P19338)", "assay": "binding assay", "details": "3'-propylamine; Southwestern; approx. 116 kDa band coincides with nucleolin antibody band in nuclear, cytoplasmic and membrane extracts; protein in an extract; label: 5'-32P (when used as probe); single-stranded DNA"}, "[5]": {"target": "nucleolin (approximately 116 kDa form + GRO-binding protein) (Homo sapiens) (UniProt P19338)", "assay": "EMSA", "details": "protein in an extract; label: 5'-32P (when used as probe); folded or branched DNA"}, "[6]": {"details": "3'-propylamine, competes with TEL less effectively than GRO29A, 10-fold molar excess, single-stranded DNA"}}, "note": "Results from cells or extracts need not show a direct contact. For some assays here: The comparison behind a weaker result is the experiment's own reference, which may not be listed here. For some assays here: The exact form of at least one protein or probe is not confirmed.", "data": [{"sequence": "GGTTGGGGTGGGTGGGGTGGGTGGG [GRO25A]", "values": [{"measurement": "binding result", "setting": "[1]; [6]", "result": "binds more weakly"}]}, {"sequence": "GTTGTTTGGGGTGG [GRO14A]", "values": [{"measurement": "binding result", "setting": "[1]; [6]", "result": "binds more weakly"}]}, {"sequence": "GTTGTTTGGGGTGGT [5'-Biotin-GRO15A]", "values": [{"measurement": "binding result", "setting": "[2]", "result": "binds"}]}, {"sequence": "GTTGTTTGGGGTGGT [GRO15A]", "values": [{"measurement": "binding result", "setting": "[3]; 3'-propylamine, single-stranded DNA", "result": "binds"}, {"measurement": "binding result", "setting": "[4]", "result": "binds"}]}, {"sequence": "TTAGGGTTAGGGTTAGGGTTAGGG [TEL]", "values": [{"measurement": "binding result", "setting": "[5]", "result": "binds"}, {"measurement": "binding result", "setting": "[3]; folded or branched DNA", "result": "binds"}]}, {"sequence": "TTTGGTGGTGGTGGTTGTGGTGGTGGTG [GRO28A]", "values": [{"measurement": "binding result", "setting": "[1]; [6]", "result": "binds more weakly"}]}, {"sequence": "TTTGGTGGTGGTGGTTGTGGTGGTGGTGG [29A-OH]", "values": [{"measurement": "binding result", "setting": "[1]; strong competition with labeled TEL at 10 nM, single-stranded DNA, variant of GRO29A", "result": "binds"}]}, {"sequence": "TTTGGTGGTGGTGGTTGTGGTGGTGGTGG [GRO29A]", "values": [{"measurement": "binding result", "setting": "[3]; 3'-propylamine, intense complex, Southwestern 106 kDa band, competes TEL, 140 mM KCl, 2.5 mM MgCl2, folded or branched DNA", "result": "binds"}, {"measurement": "binding result", "setting": "[1]; 3'-propylamine, strong competition with labeled TEL at 10 nM, label: 5'-32P (when used as probe), folded or branched DNA", "result": "binds"}]}]}
